From the supplement of paper PMC4604168 (melanoma cell lines)
Some of the results follow. Many values rest on one well or one pass, so single values are uncertain.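 Imaging used 1,536-well plates; nuclei positive for cleaved PARP by antibody were divided by total DNA-stained nuclei to yield the apoptosis fraction. Doses for screening kept most cells viable, and cell lines differ markedly in resting and induced cleaved-PARP levels.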

Key:
Test in all cases: cleaved PARP positive nuclei fraction relative to DMSO control; melanoma cells; higher = more apoptosis
Conditions in all cases: library dose: low library concentration; 72 h
[1] = system: MZ2-MEL
[2] = system: MeWo
[3] = system: RPMI7951
[4] = system: RVH-421
[5] = system: SkMel28
[6] = system: SkMel2
[7] = system: SkMel30
[8] = system: UACC62
[9] = system: WM115
[10] = system: WM1716
[11] = system: WM1745
[12] = system: WM3526
[13] = system: WM3619
[14] = system: WM451Lu
[15] = system: SkMel5
[16] = system: UACC257

| Structure (SMILES) | cleaved PARP positive nuclei fraction [1] [%] | cleaved PARP positive nuclei fraction [2] [%] | cleaved PARP positive nuclei fraction [3] [%] | cleaved PARP positive nuclei fraction [4] [%] | cleaved PARP positive nuclei fraction [5] [%] | cleaved PARP positive nuclei fraction [6] [%] | cleaved PARP positive nuclei fraction [7] [%] | cleaved PARP positive nuclei fraction [8] [%] | cleaved PARP positive nuclei fraction [9] [%] | cleaved PARP positive nuclei fraction [10] [%] | cleaved PARP positive nuclei fraction [11] [%] | cleaved PARP positive nuclei fraction [12] [%] | cleaved PARP positive nuclei fraction [13] [%] | cleaved PARP positive nuclei fraction [14] [%] | cleaved PARP positive nuclei fraction [15] [%] | cleaved PARP positive nuclei fraction [16] [%] |
| --- | --- | --- | --- | --- | --- | --- | --- | --- | --- | --- | --- | --- | --- | --- | --- | --- |
| Cc1cn(-c2cc(NC(=O)c3ccc(C)c(Nc4nccc(-c5cccnc5)n4)c3)cc(C(F)(F)F)c2)cn1 [nilotinib] + NC(=O)c1ccc(N(C(N)=O)c2c(F)cccc2F)nc1-c1ccc(F)cc1F [VX702] (first compound 0.2 µM, partner dose 0.4 µM) | 72.1 | 72.5 | 67 | 30.6 | 149 | 131 | 75.1 | 215 | 48.3 | 65.9 | 95.6 | 175 | 91.1 | 65.1 | – | – |
| Cc1cc(Nc2cc(N3CCN(C)CC3)nc(Sc3ccc(NC(=O)C4CC4)cc3)n2)n[nH]1 [Tozasertib] + COc1ccc(C2=N[C@@H](c3ccc(Cl)cc3)[C@@H](c3ccc(Cl)cc3)N2C(=O)N2CCNC(=O)C2)c(OC(C)C)c1 [Nutlin-3] (first compound 0.006 µM, partner dose 0.1 µM) | 14.8 | 247 | 83.8 | 208 | 111 | 57.1 | 74.5 | 52 | 115 | 95.9 | 192 | 52.3 | 108 | 94.2 | – | – |
| O=c1[nH]nc(Sc2ncc([N+](=O)[O-])s2)n1-c1ccc2c(c1)OCCO2 + CC(=O)O[C@@]12CO[C@@H]1C[C@H](O)[C@@]1(C)C(=O)[C@H](O)C3=C(C)[C@@H](OC(=O)[C@H](O)[C@@H](NC(=O)OC(C)(C)C)c4ccccc4)C[C@@](O)([C@@H](OC(=O)c4ccccc4)[C@H]21)C3(C)C [Docetaxel] (first compound 0.2 µM, partner dose 0.0001 µM) | 427 | 612 | 176 | 139 | 112 | – | 949 | 528 | 282 | 127 | 159 | 187 | 121 | 88.1 | – | – |
| CCCCCCCCCCCCCCCCCCOP(=O)([O-])OC1CC[N+](C)(C)CC1 [Perifosine] + CN1CCN(c2ccc3nc(-c4c(N)c5c(F)cccc5[nH]c4=O)[nH]c3c2)CC1 [Dovitinib] (first compound 0.4 µM, partner dose 0.1 µM) | 34.3 | 41.8 | 453 | 59.6 | 86.6 | 62.4 | 134 | 30.1 | 76.9 | 34.8 | 104 | 63 | 123 | 40 | – | – |
| Cc1ccc(Nc2nccc(N(C)c3ccc4c(C)n(C)nc4c3)n2)cc1S(N)(=O)=O [Pazopanib] + Nc1cccc2c1CN(C1CCC(=O)NC1=O)C2=O [lenalidomide] (first compound 0.4 µM, partner dose 1 µM) | 126 | 68.7 | 51 | 115 | 24.8 | 125 | 142 | 92.6 | 86.1 | 84.4 | 221 | 22.9 | 81.5 | 42.3 | – | – |
| O=C(/C=C/c1cccnc1)NCCCCC1CCN(C(=O)c2ccccc2)CC1 + Cn1sc(=O)n(Cc2ccccc2)c1=O [TDZD-8] (first compound 0.01 µM, partner dose 0.4 µM) | 336 | 119 | 228 | 135 | 75.6 | 2290 | 64.3 | 149 | 107 | 106 | 82.1 | 72.8 | 88.4 | 168 | – | – |
| Cc1cn(-c2cc(NC(=O)c3ccc(C)c(Nc4nccc(-c5cccnc5)n4)c3)cc(C(F)(F)F)c2)cn1 [nilotinib] + Cn1c(Nc2ccc(C(F)(F)F)cc2)nc2cc(Oc3ccnc(-c4ncc(C(F)(F)F)[nH]4)c3)ccc21 [CHIR265] (first compound 0.2 µM, partner dose 0.08 µM) | 162 | 146 | 64.4 | 167 | 78.4 | 158 | 194 | 500 | 444 | 68.6 | 138 | 66.2 | 114 | 88.2 | – | – |
| COc1cc([C@@H]2c3cc4c(cc3[C@@H](O[C@@H]3O[C@@H]5CO[C@@H](C)O[C@H]5[C@H](O)[C@H]3O)[C@H]3COC(=O)[C@H]23)OCO4)cc(OC)c1O [etoposide] + COc1cc2c(Oc3ccc4[nH]c(C)cc4c3F)ncnc2cc1OCCCN1CCCC1 [cediranib] (first compound 0.02 µM, partner dose 0.4 µM) | 111 | 36.7 | 85.5 | 79.7 | 60.4 | – | 125 | 95 | 7.79 | 105 | 91.4 | 86.9 | 109 | 193 | 89.7 | 94.5 |
